This experiment addresses FlagBirA*-KRAS4B (human) (UniProt P01116). In words: proximity labelling; BioID: FlagBirA*-RAS bait in Flp-In T-REx 293 cells, 1 µg/mL tetracycline and 50 µM biotin for 24 h; modified RIPA lysis, Streptavidin Sepharose capture, trypsin, LC-MS/MS; hits at SAINT score ≥ 0.75; labelling radius ~10 nm.

These are yes or no findings as the source states them, for the method shown. Binding seen in cells or lysates may run through a third protein. A yes stands for co-enrichment or nearness to the bait. Other partners may have been found.

B1: DENND3 (protein, UniProt A2RUS2 1-1198)
chain: MRSLRKKREKPRPEQWKGLPGPPRAPEPEDVAVPGGVDLLTLPQLCFPGGVCVATEPKEDCVHFLVLTDVCGNRTYGVVAQYYRPLHDEYCFYNGKTHRECPGCFVPFAVCVVSRFPYYNSLKDCLSCLLALLKPCKDFEVDSHIKDFAAKLSLIPSPPPGPLHLVFNMKSLQIVLPARADPESPILDLDLHLPLLCFRPEKVLQILTCILTEQRIVFFSSDWALLTLVTECFMAYLYPLQWQHPFVPILSDQMLDFVMAPTSFLMGCHLDHFEEVSKEADGLVLINIDHGSITYSKSTDDNVDIPDVPLLAAQTFIQRVQSLQLHHELHAAHLLSSTDLKEGRAHRRSWQQKLNCQIQQTTLQLLVSIFRDVKNHLNYEHRVFNSEEFLKTRAPGDHQFYKQVLDTYMFHSFLKARLNRRMDAFAQMDLDTQSEEDRINGMLLSPRRPTVEKRASRKSSHLHVTHRRMVVSMPNLQDIAMPELAPRNSSLRLTDTAGCRGSSAVLNVTPKSPYTFKIPEIHFPLESKCVQAYHAHFVSMLSEAMCFLAPDNSLLLARYLYLRGLVYLMQGQLLNALLDFQNLYKTDIRIFPTDLVKRTVESMSAPEWEGAEQAPELMRLISEILDKPHEASKLDDHVKKFKLPKKHMQLGDFMKRVQESGIVKDASIIHRLFEALTVGQEKQIDPETFKDFYNCWKETEAEAQEVSLPWLVMEHLDKNECVCKLSSSVKTNLGVGKIAMTQKRLFLLTEGRPGYLEISTFRNIEEVRRTTTTFLLRRIPTLKIRVASKKEVFEANLKTECDLWHLMVKEMWAGKKLADDHKDPHYVQQALTNVLLMDAVVGTLQSPGAIYAASKLSYFDKMSNEMPMTLPETTLETLKHKINPSAGEAFPQAVDVLLYTPGHLDPAEKVEDAHPKLWCALSEGKVTVFNASSWTIHQHSFKVGTAKVNCMVMADQNQVWVGSEDSVIYIINVHSMSCNKQLTAHCSSVTDLIVQDGQEAPSNVYSCSMDGMVLVWNVSTLQVTSRFQLPRGGLTSIRLHGGRLWCCTGNSIMVMKMNGSLHQELKIEENFKDTSTSFLAFQLLPEEEQLWAACAGRSEVYIWSLKDLAQPPQRVPLEDCSEINCMIRVKKQVWVGSRGLGQGTPKGKIYVIDAERKTVEKELVAHMDTVRTLCSAEDRYVLSGSGREEGKVAIWKGE
For the molecule B1, the binding entry is “binds”.

B2: PGD (enzyme, UniProt P52209 1-483)
chain: MAQADIALIGLAVMGQNLILNMNDHGFVVCAFNRTVSKVDDFLANEAKGTKVVGAQSLKEMVSKLKKPRRIILLVKAGQAVDDFIEKLVPLLDTGDIIIDGGNSEYRDTTRRCRDLKAKGILFVGSGVSGGEEGARYGPSLMPGGNKEAWPHIKTIFQGIAAKVGTGEPCCDWVGDEGAGHFVKMVHNGIEYGDMQLICEAYHLMKDVLGMAQDEMAQAFEDWNKTELDSFLIEITANILKFQDTDGKHLLPKIRDSAGQKGTGKWTAISALEYGVPVTLIGEAVFARCLSSLKDERIQASKKLKGPQKFQFDGDKKSFLEDIRKALYASKIISYAQGFMLLRQAATEFGWTLNYGGIALMWRGGCIIRSVFLGKIKDAFDRNPELQNLLLDDFFKSAVENCQDSWRRAVSTGVQAGIPMPCFTTALSFYDGYRHEMLPASLIQAQRDYFGAHTYELLAKPGQFIHTNWTGHGGTVSSSSYNA
On to B2, for which the binding result is “binds”.

B3: DAB2IP (protein, UniProt Q5VWQ8 1-1189)
chain: MSAGGSARKSTGRSSYYYRLLRRPRLQRQRSRSRSRTRPARESPQERPGSRRSLPGSLSEKSPSMEPSAATPFRVTGFLSRRLKGSIKRTKSQPKLDRNHSFRHILPGFRSAAAAAADNERSHLMPRLKESRSHESLLSPSSAVEALDLSMEEEVVIKPVHSSILGQDYCFEVTTSSGSKCFSCRSAAERDKWMENLRRAVHPNKDNSRRVEHILKLWVIEAKDLPAKKKYLCELCLDDVLYARTTGKLKTDNVFWGEHFEFHNLPPLRTVTVHLYRETDKKKKKERNSYLGLVSLPAASVAGRQFVEKWYPVVTPNPKGGKGPGPMIRIKARYQTITILPMEMYKEFAEHITNHYLGLCAALEPILSAKTKEEMASALVHILQSTGKVKDFLTDLMMSEVDRCGDNEHLIFRENTLATKAIEEYLKLVGQKYLQDALGEFIKALYESDENCEVDPSKCSAADLPEHQGNLKMCCELAFCKIINSYCVFPRELKEVFASWRQECSSRGRPDISERLISASLFLRFLCPAIMSPSLFNLLQEYPDDRTARTLTLIAKVTQNLANFAKFGSKEEYMSFMNQFLEHEWTNMQRFLLEISNPETLSNTAGFEGYIDLGRELSSLHSLLWEAVSQLEQSIVSKLGPLPRILRDVHTALSTPGSGQLPGTNDLASTPGSGSSSISAGLQKMVIENDLSGLIDFTRLPSPTPENKDLFFVTRSSGVQPSPARSSSYSEANEPDLQMANGGKSLSMVDLQDARTLDGEAGSPAGPDVLPTDGQAAAAQLVAGWPARATPVNLAGLATVRRAGQTPTTPGTSEGAPGRPQLLAPLSFQNPVYQMAAGLPLSPRGLGDSGSEGHSSLSSHSNSEELAAAAKLGSFSTAAEELARRPGELARRQMSLTEKGGQPTVPRQNSAGPQRRIDQPPPPPPPPPPAPRGRTPPNLLSTLQYPRPSSGTLASASPDWVGPSTRLRQQSSSSKGDSPELKPRAVHKQGPSPVSPNALDRTAAWLLTMNAQLLEDEGLGPDPPHRDRLRSKDELSQAEKDLAVLQDKLRISTKKLEEYETLFKCQEETTQKLVLEYQARLEEGEERLRRQQEDKDIQMKGIISRLMSVEEELKKDHAEMQAAVDSKQKIIDAQEKRIASLDAANARLMSALTQLKERYSMQARNGISPTNPTKLQITENGEFRNSSNC
As for B3, the binding result is given as “binds”.

B4: RASA3 (protein, UniProt Q14644 1-834)
chain: MAVEDEGLRVFQSVKIKIGEAKNLPSYPGPSKMRDCYCTVNLDQEEVFRTKIVEKSLCPFYGEDFYCEIPRSFRHLSFYIFDRDVFRRDSIIGKVAIQKEDLQKYHNRDTWFQLQHVDADSEVQGKVHLELRLSEVITDTGVVCHKLATRIVECQGLPIVNGQCDPYATVTLAGPFRSEAKKTKVKRKTNNPQFDEVFYFEVTRPCSYSKKSHFDFEEEDVDKLEIRVDLWNASNLKFGDEFLGELRIPLKVLRQSSSYEAWYFLQPRDNGSKSLKPDDLGSLRLNVVYTEDHVFSSDYYSPLRDLLLKSADVEPVSASAAHILGEVCREKQEAAVPLVRLFLHYGRVVPFISAIASAEVKRTQDPNTIFRGNSLASKCIDETMKLAGMHYLHVTLKPAIEEICQSHKPCEIDPVKLKDGENLENNMENLRQYVDRVFHAITESGVSCPTVMCDIFFSLREAAAKRFQDDPDVRYTAVSSFIFLRFFAPAILSPNLFQLTPHHTDPQTSRTLTLISKTVQTLGSLSKSKSASFKESYMATFYEFFNEQKYADAVKNFLDLISSSGRRDPKSVEQPIVLKEGFMIKRAQGRKRFGMKNFKKRWFRLTNHEFTYHKSKGDQPLYSIPIENILAVEKLEEESFKMKNMFQVIQPERALYIQANNCVEAKDWIDILTKVSQCNQKRLTVYHPSAYLSGHWLCCRAPSDSAPGCSPCTGGLPANIQLDIDGDRETERIYSLFNLYMSKLEKMQEACGSKSVYDGPEQEEYSTFVIDDPQETYKTLKQVIAGVGALEQEHAQYKRDKFKKTKYGSQEHPIGDKSFQNYIRQQSETSTHSI
For B4, the binding entry was “binds”.

B5: DENND5B (protein, UniProt Q6ZUT9 1-1274)
chain: MSGSCAAPGPGSGSSPAACRFAHYFVLCGIDADSGLEPDELAGENFDQSPLRRTFKSKVLAHYPQNIEWNPFDQDAVNMLCMPKGLSFRTQTDNKDPQFHSFIITREDGSRTYGFVLTFYEEVTSKQICTAMQTLYQMHNAEHYSSVYASSSCSMDSLASSLDEGDTTSLLKLQRYNSYDISRDTLYVSKSICLITPLPFMQACKKFLIQLYKAVTSQQPPPLPLESYIHNILYEVPLPPPGRSLKFYGVYEPVICQRPGPSELPLSDYPLREAFELLGLENLVQVFTCVLLEMQILLYSQDYQRLMTVAEGITTLLFPFQWQHVYVPILPASLLHFLDAPVPYLMGLQSKEGTDRSKLELPQEANLCFVDIDNHFIELPEEFPQFPNKVDFIQELSEVLVQFGIPPEGSLHCSESTSKLKNMVLKDLVNDKKNGNVCTNNISMYELLKGNETIARLQALAKRTGVAVEKMDLSASLGEKDKDLKLHCEEAELRDYQLNVQLREVFANRFTQMFADYEAFVIQTAQDMESWLTNREQMQNFDKASFLSDQPEPYLPFLSRFIETQMFATFIDNKIMSQWEEKDPLLRVFDTRIDKIRLYNVRAPTLRTSIYQKCSTLKEAAQSIEQRLMKMDHTAIHPHLLDMKIGQGKYEQGFFPKLQSDVLATGPTSNNRWVSRSATAQRRKERLRQHSEHVGLDNDLREKYMQEARSLGKNLRQPKLSDLSPAVIAQTNCKFVEGLLKECRMKTKRMLVEKMGHEAVELGHGEANITGLEENTLIASLCDLLERIWSHGLQVKQGKSALWSHLIQFQDREEKQEHLAESPVALGPERRKSDSGVMLPTLRVSLIQDMRHIQNMSEIKTDVGRARAWIRLSLEKKLLSQHLKQLLSNQPLTKKLYKRYAFLRCEEEREQFLYHLLSLNAVDYFCFTSVFTTIMIPYRSVIIPIKKLSNAIITSNPWICVSGELGDTGVMQIPKNLLEMTFECQNLGKLTTVQIGHDNSGLLAKWLVDCVMVRNEITGHTYRFPCGRWLGKGIDDGSLERILIGELMTSASDEDLVKQCRTPPQQKSPTTARRLSITSLTGKNNKPNAGQIQEGIGEAVNNIVKHFHKPEKERGSLTVLLCGENGLVAALEQVFHHGFKSARIFHKNVFIWDFIEKVVAYFETTDQILDNEDDVLIQKSSCKTFCHYVNAINTAPRNIGKDGKFQILVCLGTRDRLLPQWIPLLAECPAITRMYEESALLRDRMTVNSLIRILQTIQDFTIVLEGSLIKGVDV
For the molecule B5, the binding result is given as “binds”.

B6: RASAL2 (protein, UniProt Q9UJF2 1-1139)
chain: MQTPEVPAERSPRRRSISGTSTSEKPNSMDTANTSPFKVPGFFSKRLKGSIKRTKSQSKLDRNTSFRLPSLRSTDDRSRGLPKLKESRSHESLLSPCSTVECLDLGRGEPVSVKPLHSSILGQDFCFEVTYLSGSKCFSCNSASERDKWMENLRRTVQPNKDNCRRAENVLRLWIIEAKDLAPKKKYFCELCLDDTLFARTTSKTKADNIFWGEHFEFFSLPPLHSITVHIYKDVEKKKKKDKNNYVGLVNIPTASVTGRQFVEKWYPVSTPTPNKGKTGGPSIRIKSRFQTITILPMEQYKEFAEFVTSNYTMLCSVLEPVISVRNKEELACALVHILQSTGRAKDFLTDLVMSEVDRCGEHDVLIFRENTIATKSIEEYLKLVGQQYLHDALGEFIKALYESDENCEVDPSKCSSSELIDHQSNLKMCCELAFCKIINSYCVFPRELKEVFASWKQQCLNRGKQDISERLISASLFLRFLCPAIMSPSLFNLMQEYPDDRTSRTLTLIAKVIQNLANFAKFGNKEEYMAFMNDFLEHEWGGMKRFLLEISNPDTISNTPGFDGYIDLGRELSVLHSLLWEVVSQLDKGENSFLQATVAKLGPLPRVLADITKSLTNPTPIQQQLRRFTEHNSSPNVSGSLSSGLQKIFEDPTDSDLHKLKSPSQDNTDSYFRGKTLLLVQQASSQSMTYSEKDERESSLPNGRSVSLMDLQDTHAAQVEHASVMLDVPIRLTGSQLSITQVASIKQLRETQSTPQSAPQVRRPLHPALNQPGGLQPLSFQNPVYHLNNPIPAMPKASIDSSLENLSTASSRSQSNSEDFKLSGPSNSSMEDFTKRSTQSEDFSRRHTVPDRHIPLALPRQNSTGQAQIRKVDQGGLGARAKAPPSLPHSASLRSTGSMSVVSAALVAEPVQNGSRSRQQSSSSRESPVPKVRAIQRQQTQQVQSPVDSATMSPVERTAAWVLNNGQYEEDVEETEQNLDEAKHAEKYEQEITKLKERLRVSSRRLEEYERRLLVQEQQMQKLLLEYKARLEDSEERLRRQQEEKDSQMKSIISRLMAVEEELKKDHAEMQAVIDAKQKIIDAQEKRIVSLDSANTRLMSALTQVKERYSMQVRNGISPTNPTKLSITENGEFKNSSC
Consider B6, for which the binding entry was “binds”.

These data come from paper PMC7696408.
